# PubChem BioAssay AID1259405 – NCATS, 2018
# Test: 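Silenced genes that increase secreted GFP made by CHO cells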 (primary screen)
# Cell system: Chinese hamster CHO-K1 ovary cells with stable secreted eGFP expression
# Knock-down reagent: single siRNA against mouse genes, 0.8 pmol siRNA per well (2 µl of 400 nM stock)
# Timing: 3 days
# Measured: 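Per-well intracellular GFP measured by laser scanning cytometry, plus viability from ATP luminescence, each relative to plate median of non-targeting control wells, in %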
# Direction: GFP, % of control: higher = more GFP per well, higher productivity; viability (ATP), % of control: higher = more viable cells (more ATP)
# Call rule: 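Called active when intracellular GFP, relative to negative control, is at or above 120%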
# Shown is a random part of about 50,000 reagents tested. About 4,000 of all reagents (8%) count as active. 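Mouse siRNA library applied to hamster cells; one well for each siRNA.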 Reagents against one gene are numbered here.
Gene,reagent,"GFP, % of control","viability (ATP), % of control",activity call
Lypla2,1,89.9,69.8,inactive
Lypla2,2,104,93.6,inactive
Lypla2,3,55.1,106,inactive
Ddah1,1,67.1,70.8,inactive
Ddah1,2,96.4,96.1,inactive
Ddah1,3,195,66.1,active
Tbpl1,1,68.1,72.1,inactive
Tbpl1,2,66.7,79.2,inactive
Tbpl1,3,68.9,93.6,inactive
Ugt3a1,1,21.4,13.8,inactive
Ugt3a1,2,67.2,63.9,inactive
Ugt3a1,3,81.1,61.3,inactive
Ywhab,1,53.2,60.3,inactive
Ywhab,2,41.2,40.3,inactive
Ywhab,3,43.8,63.9,inactive
Krt15,1,69.2,60.2,inactive
Krt15,2,89,75.9,inactive
Zfp184,1,56.8,66.5,inactive
Zfp184,2,95.5,83.7,inactive
Zfp184,3,110,111,inactive
Adam39,1,9.96,96.4,inactive
Adam39,2,31.5,35.2,inactive
Adam39,3,82.4,92.2,inactive
Noc4l,1,104,124,inactive
Noc4l,2,51.1,62.5,inactive
Noc4l,3,59.1,89.5,inactive
Nr2c1,1,86.6,70.6,inactive
Nr2c1,2,80.5,80.6,inactive
Nr2c1,3,68.9,76.3,inactive
Stx6,1,125,125,active
Stx6,2,75.6,69.9,inactive
Tinagl1,1,87.2,116,inactive
Tinagl1,2,116,58.5,inactive
Olfm3,1,70.1,93.6,inactive
Olfm3,2,79.9,100,inactive
Olfm3,3,16.9,20.3,inactive
Sec11a,1,49.1,51.7,inactive
Sec11a,2,55.5,68.9,inactive
Sec11a,3,41.6,53,inactive
Taar4,1,71.3,129,inactive
Taar4,2,88.2,82.8,inactive
Taar4,3,59.1,53.1,inactive
Eif2s3x,1,62.5,65.2,inactive
Eif2s3x,2,35.6,41.4,inactive
Eif2s3x,3,50.3,51.5,inactive
Vmn1r181,1,58.7,42.8,inactive
Vmn1r181,2,73.2,55.1,inactive
Vmn1r181,3,93.4,72.2,inactive

Reprinted from the listing (14 entries):
Gene,reagent,"GFP, % of control","viability (ATP), % of control",activity call
Tinagl1,2,116,58.5,inactive
Olfm3,1,70.1,93.6,inactive
Olfm3,2,79.9,100,inactive
Olfm3,3,16.9,20.3,inactive
Sec11a,1,49.1,51.7,inactive
Sec11a,2,55.5,68.9,inactive
Sec11a,3,41.6,53,inactive
Taar4,1,71.3,129,inactive
Taar4,2,88.2,82.8,inactive
Taar4,3,59.1,53.1,inactive
Eif2s3x,1,62.5,65.2,inactive
Eif2s3x,2,35.6,41.4,inactive
Eif2s3x,3,50.3,51.5,inactive
Vmn1r181,1,58.7,42.8,inactive

The listing continues:
Gene,reagent,"GFP, % of control","viability (ATP), % of control",activity call
Cox7a2,1,161,126,active
Cox7a2,2,88.1,63.7,inactive
Cox7a2,3,81.7,71.6,inactive
Smim14,1,86.7,77.7,inactive
Smim14,2,91.4,57.3,inactive
Smim14,3,87.7,83.7,inactive
Slc66a1,1,76.4,36.6,inactive
Slc66a1,2,35.1,31.1,inactive
Slc66a1,3,90.8,125,inactive
Igfbp5,1,81.2,73.5,inactive
Igfbp5,2,43.1,44.7,inactive
Igfbp5,3,85.1,84.8,inactive
Tmem19,1,101,37.5,inactive
Tmem19,2,114,116,inactive
Tmem19,3,137,149,active
Galc,1,53.1,63.7,inactive
Galc,2,83.9,81.1,inactive
Galc,3,92.4,82,inactive
Mastl,1,59.8,76.5,inactive
Spire2,1,85.3,77.5,inactive
Spire2,2,50.6,62.3,inactive
Spire2,3,64.6,60.3,inactive
Ryr3,1,85.3,87.1,inactive
Ryr3,2,77.7,53.1,inactive
Ryr3,3,61.4,63.5,inactive
Sema3b,1,54.8,77,inactive
Sema3b,2,59.8,40.5,inactive
Sema3b,3,71.3,37.9,inactive
Psme3,1,89.7,94.8,inactive
Psme3,2,56.2,46.6,inactive
Psme3,3,73.7,102,inactive
Tti1,1,63.9,65.7,inactive
Tti1,2,39.2,72,inactive
Tti1,3,77.3,97.9,inactive
Sema5b,1,106,68.2,inactive
Sema5b,2,64.2,63.7,inactive
Sema5b,3,60.8,67.4,inactive
Trpc6,1,75,69.2,inactive
Trpc6,2,44.2,41.5,inactive
Trpc6,3,68,67.2,inactive
Ldhc,1,76.2,90.2,inactive
Ldhc,2,111,90.7,inactive
Ldhc,3,80.5,113,inactive
Spata7,1,94.8,75.3,inactive
Spata7,2,102,115,inactive
Spata7,3,159,108,active
Etnppl,1,64.5,73.5,inactive
Etnppl,2,23.5,60.1,inactive
Etnppl,3,96.6,116,inactive
Sult3a1,1,37.6,63.5,inactive
Sult3a1,2,68.2,72.8,inactive
Sult3a1,3,125,79.1,active
Slc26a9,1,66.1,61.9,inactive
Slc26a9,2,128,111,active
Slc26a9,3,104,95.6,inactive
Mamdc2,1,62.8,60.4,inactive
Mamdc2,2,92.6,78.5,inactive
Mamdc2,3,107,57.3,inactive
Cyth2,1,80.4,87.8,inactive
Cyth2,2,71.3,101,inactive
Cyth2,3,107,93.7,inactive
